Test results from paper PMC4831773.

Chains of the proteins cited; added tags and fusions are not shown. Chains listed by the source or under a name are the forms on record and can include a tag or linker.
His-O2 (Opaque2) (Zea mays), one chain, as listed by the source: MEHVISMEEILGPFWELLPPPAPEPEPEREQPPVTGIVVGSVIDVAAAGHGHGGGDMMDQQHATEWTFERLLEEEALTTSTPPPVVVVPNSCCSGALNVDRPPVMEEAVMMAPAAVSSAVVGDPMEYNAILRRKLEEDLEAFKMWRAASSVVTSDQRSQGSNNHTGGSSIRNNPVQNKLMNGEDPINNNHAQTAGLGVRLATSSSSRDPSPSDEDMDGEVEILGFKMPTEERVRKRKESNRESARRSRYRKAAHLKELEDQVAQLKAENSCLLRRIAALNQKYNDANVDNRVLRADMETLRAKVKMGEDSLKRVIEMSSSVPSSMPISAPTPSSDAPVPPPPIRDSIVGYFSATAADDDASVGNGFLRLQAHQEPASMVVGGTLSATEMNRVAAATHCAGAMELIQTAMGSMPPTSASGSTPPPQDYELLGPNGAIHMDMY

What follows are sequences tested on His-O2 (Opaque2) (Zea mays) (assay: EMSA). Conditions: EMSA: 20 ng protein, 5 ng biotin DNA, 10 mM Tris pH 7.5, 50 mM KCl, 1 mM DTT (1x of 10x buffer), plus glycerol, MgCl2, poly(dI-dC), NP-40; 25 C, 20 min; 8% …; recombinant protein; protein details: His (pET-32a fusion); label: biotin.

Row | Sequence | binding result
1 | GCAAATCCTTTGCATGTACGCAAAACTAGCTAGTTGTCACAAGTTGTATA (double strand) [50-1 probe (50kD-1)] | no binding

Same assay, conditions: preferential site; EMSA: 20 ng protein, 5 ng biotin DNA, 10 mM Tris pH 7.5, 50 mM KCl, 1 mM DTT (1x of 10x buffer), plus glycerol, MgCl2, poly(dI-dC), NP-40; 25 C, 20 min; 8% PAGE; recombinant protein; protein details: His (pET-32a fusion); label: biotin

Row | Sequence | binding result
2 | AGCAAGAAAAGGACAATAATACTTGACATGTAAAGTGAAGCTTATTATACTTCCTA (double strand) [50-2 probe (50kD-2)] | binds

These sequences were tested against His-ZmMADS47 (Zea mays) (UniProt B6TCJ4) (assay: EMSA). Conditions: EMSA: 20 ng protein, 5 ng biotin DNA, 10 mM Tris pH 7.5, 50 mM KCl, 1 mM DTT (1x of 10x buffer), plus glycerol, MgCl2, poly(dI-dC), NP-40; 25 C, 20 min; 8% …; recombinant protein; protein details: His (pET-32a fusion); label: biotin.

Row | Sequence | binding result
3 | ATATTATTGAGACCAACTAGCAACATAGAAAGCACAATAGTGTACCAACA (double strand) [z1A probe 8] | no binding
4 | ATCACTAAATGTCAAAACCAACTAGATACCATGTCATCTCTACCTTATCT (double strand) [z1A probe 5] | no binding
5 | ATTATATCAAGTTTGTCTTGCTTACGTATAAATTATAACCCAACAAAGTA (double strand) [z1A probe 4] | no binding
6 | CACACCATTGTCACCCACATATTTGGACAA (double strand) [Z2-Mu4] | no binding
7 | CACACCATTGTCACCCATGCGTTTGGACAA (double strand) [Z2-Mu5] | no binding
8 | CACACCATTGTCACCTGTGTATTTGGACAA (double strand) [Z2-Mu3] | no binding
9 | CATATGTGGCTATCGTTACACATGTGTAAA (double strand) [probe 2-1 (S2 Table: 19kD 7-2)] | binds
10 | CATATGTGGCTATCGTTACACATGTGTAAAGGTATTGCATCACACCATTG (double strand) [z1A probe 2] | binds
11 | GAAAAACCACTTATTTATTGT (double strand) [probe 3-2 (S2 Table: 19kD 6-1)] | no binding
12 | GAATCGTGCCATGATTTTTTTCTAGTGGAAAATAGCCAAACCAAGCAACA (double strand) [z1A probe 1] | no binding
13 | GACTGAGATGTGTATAAATATCTCTTAAATTAGTAGCTAATATATCGCAC (double strand) [z1A probe 7] | no binding
14 | GGTATTGCATCACACCATTG (double strand) [probe 2-2 (S2 Table: 19kD 7-1)] | no binding
15 | TACTAATATTCTTTTTGCAAAATCCAAAATTAATCTTGCACAAGCACAAG (double strand) [z1A probe 6] | no binding
16 | TCACCCATGTATTTGGACAATACCGAGAG (double strand) [probe 3-1 (S2 Table: 19kD 6-2)] | binds
17 | TCACCCATGTATTTGGACAATACCGAGAGGAAAAACCACTTATTTATTGT (double strand) [z1A probe 3] | binds

Same assay, conditions: preferential site; EMSA: 20 ng protein, 5 ng biotin DNA, 10 mM Tris pH 7.5, 50 mM KCl, 1 mM DTT (1x of 10x buffer), plus glycerol, MgCl2, poly(dI-dC), NP-40; 25 C, 20 min; 8% PAGE; recombinant protein; protein details: His (pET-32a fusion); label: biotin

Row | Sequence | binding result
18 | GCAAATCCTTTGCATGTACGCAAAACTAGCTAGTTGTCACAAGTTGTATA (double strand) [50-1 probe (50kD-1)] | binds

Same assay, conditions: weaker than 50-1; EMSA: 20 ng protein, 5 ng biotin DNA, 10 mM Tris pH 7.5, 50 mM KCl, 1 mM DTT (1x of 10x buffer), plus glycerol, MgCl2, poly(dI-dC), NP-40; 25 C, 20 min; 8% PAGE; recombinant protein; protein details: His (pET-32a fusion); label: biotin

Row | Sequence | binding result
19 | AGCAAGAAAAGGACAATAATACTTGACATGTAAAGTGAAGCTTATTATACTTCCTA (double strand) [50-2 probe (50kD-2)] | binds more weakly

Construct, isoform or probe ends are uncertain for at least one entry. A negative result means that nothing was seen under these conditions. For some of these results: At least one verdict was read from the data and is not stated in words by the source. For some of these results: A weaker result is weaker than the reference pair of the same experiment.
